Compound in this test: Nc1nc2c(ncn2[C@@H]2O[C@H](COP(=O)(O)OP(=O)(O)OP(=O)(O)O)[C@@H](O)[C@H]2O)c(=O)[nH]1 [guanosine triphosphate]
The experiment in a line: NP40-soluble protein abundance relative to vehicle (solubility fold change) (ratio); higher = more soluble protein in presence of GTP. The procedure, abridged:
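Across three independent experiments, values are fold changes against the detergent-processed vehicle for each replicate, based on vsn-normalised intensities. The samples were Jurkat crude lysate treated with eight concentrations (0.1 to 10 mM) for 10 min at room temperature and then 3 min at 37 °C. Lysate was solubilised with 0.8% NP40 and benzonase, ultracentrifuged, and the supernatant analysed by TMT-labelled LC-MS/MS.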

Protein sequences, listed by entry. Tags and fused reporters are not part of them. Lines headed by an entry give the natural chain unless they say otherwise; changes in a name come on top.
UniProt Q15014, whole entry: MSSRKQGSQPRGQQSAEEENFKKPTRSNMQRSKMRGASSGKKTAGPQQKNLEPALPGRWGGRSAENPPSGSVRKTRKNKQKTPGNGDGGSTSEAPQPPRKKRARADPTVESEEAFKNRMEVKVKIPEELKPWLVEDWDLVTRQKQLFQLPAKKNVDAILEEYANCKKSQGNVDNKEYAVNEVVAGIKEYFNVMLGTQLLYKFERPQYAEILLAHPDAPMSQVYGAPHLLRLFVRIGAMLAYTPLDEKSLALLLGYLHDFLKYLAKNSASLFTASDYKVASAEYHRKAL
UniProt Q15059, whole entry, looked up: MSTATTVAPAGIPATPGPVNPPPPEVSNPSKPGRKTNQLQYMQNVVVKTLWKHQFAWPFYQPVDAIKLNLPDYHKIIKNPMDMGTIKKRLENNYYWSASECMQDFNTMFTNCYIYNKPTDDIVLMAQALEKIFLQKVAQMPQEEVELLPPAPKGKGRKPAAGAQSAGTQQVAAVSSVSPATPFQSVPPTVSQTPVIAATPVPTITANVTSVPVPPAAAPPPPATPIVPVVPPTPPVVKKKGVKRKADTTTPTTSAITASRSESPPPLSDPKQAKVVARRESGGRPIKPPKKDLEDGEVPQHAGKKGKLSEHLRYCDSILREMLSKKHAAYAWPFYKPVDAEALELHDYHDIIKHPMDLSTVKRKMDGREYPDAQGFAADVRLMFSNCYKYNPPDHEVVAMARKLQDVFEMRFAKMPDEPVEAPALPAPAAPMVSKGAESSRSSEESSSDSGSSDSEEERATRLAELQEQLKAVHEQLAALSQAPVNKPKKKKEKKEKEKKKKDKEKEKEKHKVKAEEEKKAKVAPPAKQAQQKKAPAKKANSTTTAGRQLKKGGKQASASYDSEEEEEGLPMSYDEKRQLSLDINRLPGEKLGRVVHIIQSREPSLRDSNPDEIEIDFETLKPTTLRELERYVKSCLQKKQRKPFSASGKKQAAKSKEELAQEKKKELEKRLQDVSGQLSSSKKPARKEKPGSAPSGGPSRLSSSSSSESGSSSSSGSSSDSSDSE
UniProt Q15027: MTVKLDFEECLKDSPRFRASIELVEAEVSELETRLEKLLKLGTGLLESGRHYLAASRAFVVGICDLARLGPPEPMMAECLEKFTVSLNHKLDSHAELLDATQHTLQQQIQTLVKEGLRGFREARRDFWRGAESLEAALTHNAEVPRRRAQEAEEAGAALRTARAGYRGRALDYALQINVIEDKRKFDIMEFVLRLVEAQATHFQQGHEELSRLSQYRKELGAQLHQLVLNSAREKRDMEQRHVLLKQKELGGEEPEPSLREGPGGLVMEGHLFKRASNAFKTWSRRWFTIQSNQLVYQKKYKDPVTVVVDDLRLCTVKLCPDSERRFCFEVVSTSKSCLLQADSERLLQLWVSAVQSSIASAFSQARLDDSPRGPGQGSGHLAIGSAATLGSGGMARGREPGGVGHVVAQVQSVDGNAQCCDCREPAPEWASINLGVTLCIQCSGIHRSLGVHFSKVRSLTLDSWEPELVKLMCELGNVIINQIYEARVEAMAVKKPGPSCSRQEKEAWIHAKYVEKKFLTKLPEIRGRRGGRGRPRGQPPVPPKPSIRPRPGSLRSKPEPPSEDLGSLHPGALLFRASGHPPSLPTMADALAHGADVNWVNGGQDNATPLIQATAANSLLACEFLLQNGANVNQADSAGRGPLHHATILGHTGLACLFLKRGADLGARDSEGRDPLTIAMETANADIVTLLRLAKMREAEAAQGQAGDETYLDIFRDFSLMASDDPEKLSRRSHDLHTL
UniProt Q5FBB7: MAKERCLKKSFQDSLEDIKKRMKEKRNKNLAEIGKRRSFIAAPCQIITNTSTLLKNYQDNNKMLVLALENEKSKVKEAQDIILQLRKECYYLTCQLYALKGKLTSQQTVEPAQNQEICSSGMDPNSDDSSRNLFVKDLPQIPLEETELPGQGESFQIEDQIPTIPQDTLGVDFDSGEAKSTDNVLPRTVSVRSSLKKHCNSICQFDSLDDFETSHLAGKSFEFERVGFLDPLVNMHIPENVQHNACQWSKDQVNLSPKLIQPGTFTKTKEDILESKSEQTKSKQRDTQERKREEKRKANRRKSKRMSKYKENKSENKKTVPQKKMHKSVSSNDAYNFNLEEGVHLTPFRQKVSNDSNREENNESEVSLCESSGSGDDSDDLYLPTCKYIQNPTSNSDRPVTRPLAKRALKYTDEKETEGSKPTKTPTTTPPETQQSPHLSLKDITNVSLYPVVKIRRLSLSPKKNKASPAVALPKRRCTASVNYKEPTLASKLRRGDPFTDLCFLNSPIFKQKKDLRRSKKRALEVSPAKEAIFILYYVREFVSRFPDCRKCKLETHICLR
UniProt Q14CB8: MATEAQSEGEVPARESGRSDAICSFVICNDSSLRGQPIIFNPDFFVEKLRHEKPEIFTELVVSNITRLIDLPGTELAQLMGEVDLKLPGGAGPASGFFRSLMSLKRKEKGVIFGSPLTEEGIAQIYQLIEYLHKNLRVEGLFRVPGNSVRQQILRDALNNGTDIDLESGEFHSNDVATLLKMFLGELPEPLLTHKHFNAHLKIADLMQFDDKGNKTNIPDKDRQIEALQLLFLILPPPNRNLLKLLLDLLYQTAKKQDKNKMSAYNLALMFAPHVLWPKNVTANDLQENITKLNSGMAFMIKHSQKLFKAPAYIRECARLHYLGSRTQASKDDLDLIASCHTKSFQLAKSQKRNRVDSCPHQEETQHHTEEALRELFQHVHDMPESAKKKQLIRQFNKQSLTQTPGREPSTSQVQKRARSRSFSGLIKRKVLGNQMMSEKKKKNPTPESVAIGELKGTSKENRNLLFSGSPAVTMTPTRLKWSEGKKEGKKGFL
UniProt Q56VL3: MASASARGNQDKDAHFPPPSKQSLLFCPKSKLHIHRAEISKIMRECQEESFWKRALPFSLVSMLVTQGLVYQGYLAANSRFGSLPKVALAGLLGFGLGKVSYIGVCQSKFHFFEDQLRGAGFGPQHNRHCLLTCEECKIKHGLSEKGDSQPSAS
UniProt Q15084: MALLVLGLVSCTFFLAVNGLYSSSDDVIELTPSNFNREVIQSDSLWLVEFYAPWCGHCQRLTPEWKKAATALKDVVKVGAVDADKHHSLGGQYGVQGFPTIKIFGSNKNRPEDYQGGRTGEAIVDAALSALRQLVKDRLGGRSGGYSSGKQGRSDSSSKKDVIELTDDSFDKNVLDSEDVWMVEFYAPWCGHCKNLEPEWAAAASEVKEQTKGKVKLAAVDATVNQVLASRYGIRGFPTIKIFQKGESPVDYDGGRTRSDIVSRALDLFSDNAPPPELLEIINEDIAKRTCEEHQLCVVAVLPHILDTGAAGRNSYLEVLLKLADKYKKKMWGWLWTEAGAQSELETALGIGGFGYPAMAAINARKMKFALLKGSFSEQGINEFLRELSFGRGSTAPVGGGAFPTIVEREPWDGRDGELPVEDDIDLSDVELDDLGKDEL
UniProt Q15036: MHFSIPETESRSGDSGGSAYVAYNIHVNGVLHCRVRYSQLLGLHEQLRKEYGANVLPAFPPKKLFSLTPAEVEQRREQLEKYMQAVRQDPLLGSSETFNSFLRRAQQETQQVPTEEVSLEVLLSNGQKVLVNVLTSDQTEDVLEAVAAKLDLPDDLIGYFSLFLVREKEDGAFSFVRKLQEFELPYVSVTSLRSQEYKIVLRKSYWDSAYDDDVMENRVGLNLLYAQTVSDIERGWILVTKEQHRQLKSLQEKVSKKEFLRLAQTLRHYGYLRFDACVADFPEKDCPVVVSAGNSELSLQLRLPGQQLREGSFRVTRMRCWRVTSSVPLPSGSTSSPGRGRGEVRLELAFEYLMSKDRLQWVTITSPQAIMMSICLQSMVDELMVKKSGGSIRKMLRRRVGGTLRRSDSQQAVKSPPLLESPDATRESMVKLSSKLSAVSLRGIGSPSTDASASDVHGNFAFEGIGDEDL
UniProt Q14699: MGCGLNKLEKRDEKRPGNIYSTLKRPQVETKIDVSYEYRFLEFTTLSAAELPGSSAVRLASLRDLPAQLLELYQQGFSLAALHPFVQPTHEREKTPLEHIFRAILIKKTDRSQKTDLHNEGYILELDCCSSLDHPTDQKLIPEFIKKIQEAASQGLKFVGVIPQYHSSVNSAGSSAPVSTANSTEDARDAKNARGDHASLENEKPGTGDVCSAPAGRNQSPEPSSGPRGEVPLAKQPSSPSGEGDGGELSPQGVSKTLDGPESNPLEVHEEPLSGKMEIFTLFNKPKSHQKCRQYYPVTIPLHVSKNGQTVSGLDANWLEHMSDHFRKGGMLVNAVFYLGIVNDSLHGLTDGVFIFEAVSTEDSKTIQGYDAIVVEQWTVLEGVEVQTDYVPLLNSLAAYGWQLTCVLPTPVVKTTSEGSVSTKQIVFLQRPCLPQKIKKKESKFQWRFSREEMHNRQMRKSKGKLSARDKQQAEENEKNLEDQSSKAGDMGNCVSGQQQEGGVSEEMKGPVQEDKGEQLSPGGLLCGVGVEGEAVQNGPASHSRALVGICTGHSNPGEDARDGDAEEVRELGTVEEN
UniProt Q15435: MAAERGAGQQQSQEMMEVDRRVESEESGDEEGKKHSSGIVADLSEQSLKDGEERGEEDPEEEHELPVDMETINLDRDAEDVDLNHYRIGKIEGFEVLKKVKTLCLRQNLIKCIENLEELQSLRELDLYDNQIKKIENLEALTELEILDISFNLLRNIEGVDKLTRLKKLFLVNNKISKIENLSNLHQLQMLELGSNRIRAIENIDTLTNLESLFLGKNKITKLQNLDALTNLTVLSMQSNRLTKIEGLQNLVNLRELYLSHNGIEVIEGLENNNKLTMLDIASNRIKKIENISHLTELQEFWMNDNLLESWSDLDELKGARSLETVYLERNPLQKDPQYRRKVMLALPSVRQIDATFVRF
UniProt Q8IVH4: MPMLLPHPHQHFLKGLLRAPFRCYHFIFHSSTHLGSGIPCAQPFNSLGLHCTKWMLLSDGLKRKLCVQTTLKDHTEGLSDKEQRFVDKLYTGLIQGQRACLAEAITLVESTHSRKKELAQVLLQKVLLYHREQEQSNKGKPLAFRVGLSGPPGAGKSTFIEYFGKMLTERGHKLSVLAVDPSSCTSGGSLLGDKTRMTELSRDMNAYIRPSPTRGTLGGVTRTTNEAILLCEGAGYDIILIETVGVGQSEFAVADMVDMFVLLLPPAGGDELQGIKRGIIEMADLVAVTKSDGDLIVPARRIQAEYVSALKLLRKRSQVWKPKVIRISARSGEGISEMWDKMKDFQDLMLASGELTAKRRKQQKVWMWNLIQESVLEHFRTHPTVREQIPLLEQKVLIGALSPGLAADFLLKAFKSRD
UniProt Q16854: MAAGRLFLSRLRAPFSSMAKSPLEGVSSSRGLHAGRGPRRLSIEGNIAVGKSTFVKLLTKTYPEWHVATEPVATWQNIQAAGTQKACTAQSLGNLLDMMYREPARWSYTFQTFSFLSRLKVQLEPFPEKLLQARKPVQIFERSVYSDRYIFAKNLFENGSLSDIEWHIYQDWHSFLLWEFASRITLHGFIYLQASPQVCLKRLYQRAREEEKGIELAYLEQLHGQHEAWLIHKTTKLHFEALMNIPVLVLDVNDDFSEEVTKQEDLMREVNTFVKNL
UniProt Q5JTZ9, whole entry: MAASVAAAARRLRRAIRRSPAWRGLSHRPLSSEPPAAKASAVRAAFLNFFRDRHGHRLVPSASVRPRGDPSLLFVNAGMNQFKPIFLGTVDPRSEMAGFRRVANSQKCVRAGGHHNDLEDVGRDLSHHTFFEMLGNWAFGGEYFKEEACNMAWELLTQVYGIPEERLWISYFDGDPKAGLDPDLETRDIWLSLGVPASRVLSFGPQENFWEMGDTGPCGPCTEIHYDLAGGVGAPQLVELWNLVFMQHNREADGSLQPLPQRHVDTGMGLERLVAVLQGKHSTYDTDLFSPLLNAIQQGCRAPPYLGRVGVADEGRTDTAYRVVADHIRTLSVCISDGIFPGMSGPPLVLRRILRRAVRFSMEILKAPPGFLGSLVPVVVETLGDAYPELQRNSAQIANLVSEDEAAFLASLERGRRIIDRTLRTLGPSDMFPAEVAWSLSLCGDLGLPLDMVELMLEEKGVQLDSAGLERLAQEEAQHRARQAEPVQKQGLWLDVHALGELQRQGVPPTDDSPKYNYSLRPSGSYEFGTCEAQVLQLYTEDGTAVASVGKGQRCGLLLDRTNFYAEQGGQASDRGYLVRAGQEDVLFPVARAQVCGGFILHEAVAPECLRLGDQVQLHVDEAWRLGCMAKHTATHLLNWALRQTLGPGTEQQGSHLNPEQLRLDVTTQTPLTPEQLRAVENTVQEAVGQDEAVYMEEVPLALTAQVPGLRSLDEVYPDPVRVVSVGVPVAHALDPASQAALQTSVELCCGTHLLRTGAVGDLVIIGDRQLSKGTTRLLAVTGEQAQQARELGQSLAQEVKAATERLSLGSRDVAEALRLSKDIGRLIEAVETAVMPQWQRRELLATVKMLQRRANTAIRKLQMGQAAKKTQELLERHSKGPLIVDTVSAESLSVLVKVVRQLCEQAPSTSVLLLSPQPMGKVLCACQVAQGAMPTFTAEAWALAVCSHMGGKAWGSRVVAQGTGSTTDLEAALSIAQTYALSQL

± gives the standard deviation of the averaged measurements. This is one part of the list.

As for MORF4L2 (UniProt Q15014), the NP40-soluble protein abundance (concentration: 0.1mM) was 0.987 ± 0.068; the NP40-soluble protein abundance (concentration: 0.5mM) stood at 0.935 ± 0.12; the NP40-soluble protein abundance (concentration: 1mM) came to 1.12 ± 0.053; the NP40-soluble protein abundance (concentration: 2mM) worked out at 1.1 ± 0.11; the NP40-soluble protein abundance (concentration: 4mM) was 1.15 ± 0.093; the NP40-soluble protein abundance (concentration: 6mM) was determined as 1.09 ± 0.12. Besides, the NP40-soluble protein abundance reads like this: (concentration: 8mM) 1.16 ± 0.078; (concentration: 10mM) 1.17 ± 0.062.
With BRD3 (UniProt Q15059), the NP40-soluble protein abundance stood at 0.961 ± 0.043 (concentration: 0.1mM); 0.986 ± 0.097 (concentration: 0.5mM); 1.08 ± 0.11 (concentration: 1mM); 1.08 ± 0.14 (concentration: 2mM); 1.13 ± 0.088 (concentration: 4mM); 1.11 ± 0.11 (concentration: 6mM). Moreover, the NP40-soluble protein abundance (concentration: 8mM) amounted to 1.19 ± 0.098 and the NP40-soluble protein abundance (concentration: 10mM) is 1.21 ± 0.14.
Regarding ACAP1 (UniProt Q15027), the NP40-soluble protein abundance is, setting by setting: (concentration: 0.1mM) 1 ± 0.035; (concentration: 0.5mM) 1.01 ± 0.047; (concentration: 1mM) 0.934 ± 0.036; (concentration: 2mM) 0.933 ± 0.061; (concentration: 4mM) 0.948 ± 0.066; (concentration: 6mM) 0.908 ± 0.041. Besides, the NP40-soluble protein abundance reads like this: (concentration: 8mM) 0.885 ± 0.026; (concentration: 10mM) 0.86 ± 0.018.
Turning to UniProt Q5T4S7 and related entries, the NP40-soluble protein abundance is, setting by setting: (concentration: 0.1mM) 1.07 ± 0.081; (concentration: 0.5mM) 1.13 ± 0.15; (concentration: 1mM) 1.15 ± 0.19; (concentration: 2mM) 1.21 ± 0.22; (concentration: 4mM) 1.25 ± 0.25; (concentration: 6mM) 1.24 ± 0.27. Further, the NP40-soluble protein abundance came out at 1.24 ± 0.27 (concentration: 8mM) and 1.18 ± 0.25 (concentration: 10mM).
Turning to UniProt Q5FBB7 and related entries, the NP40-soluble protein abundance reads like this: (concentration: 0.1mM) 0.94 ± 0.048; (concentration: 0.5mM) 0.948 ± 0.081; (concentration: 1mM) 1.02 ± 0.11; (concentration: 2mM) 1.09 ± 0.062; (concentration: 4mM) 0.995 ± 0.085; (concentration: 6mM) 1.03 ± 0.089. Moreover, the NP40-soluble protein abundance worked out at 1.02 ± 0.069 (concentration: 8mM) and 1.03 ± 0.14 (concentration: 10mM).
Take UniProt Q14CB8 and related entries: the NP40-soluble protein abundance stood at 1.1 ± 0.089 (concentration: 0.1mM); 1.111 ± 0.011 (concentration: 0.5mM); 1.13 ± 0.045 (concentration: 1mM); 1.23 ± 0.044 (concentration: 2mM); 1.26 ± 0.053 (concentration: 4mM); 1.23 ± 0.11 (concentration: 6mM). Moreover, the NP40-soluble protein abundance (concentration: 8mM) is 1.27 ± 0.11 and the NP40-soluble protein abundance (concentration: 10mM) was 1.23 ± 0.1.
As for OCIAD2 (UniProt Q56VL3), the NP40-soluble protein abundance (concentration: 0.1mM) came out at 0.943 ± 0.036; the NP40-soluble protein abundance (concentration: 0.5mM) was 0.872 ± 0.017; the NP40-soluble protein abundance (concentration: 1mM) turned out to be 0.935 ± 0.026; the NP40-soluble protein abundance (concentration: 2mM) turned out to be 0.932 ± 0.012; the NP40-soluble protein abundance (concentration: 4mM) was found to be 0.972 ± 0.014; the NP40-soluble protein abundance (concentration: 6mM) turned out to be 0.862 ± 0.045. Further, the NP40-soluble protein abundance by setting is: (concentration: 8mM) 0.868 ± 0.1; (concentration: 10mM) 0.894 ± 0.061.
UniProt Q15084 and related entries: the NP40-soluble protein abundance runs as follows: (concentration: 0.1mM) 0.908 ± 0.055; (concentration: 0.5mM) 0.928 ± 0.062; (concentration: 1mM) 0.9 ± 0.049; (concentration: 2mM) 0.858 ± 0.064; (concentration: 4mM) 0.828 ± 0.059; (concentration: 6mM) 0.865 ± 0.066. For the same target, the NP40-soluble protein abundance by setting is: (concentration: 8mM) 0.854 ± 0.056; (concentration: 10mM) 0.868 ± 0.075.
Regarding UniProt Q15036 and related entries, the NP40-soluble protein abundance stood at 1.04 ± 0.029 (concentration: 0.1mM); 0.996 ± 0.12 (concentration: 0.5mM); 0.902 ± 0.073 (concentration: 1mM); 0.911 ± 0.045 (concentration: 2mM); 0.911 ± 0.022 (concentration: 4mM); 0.902 ± 0.032 (concentration: 6mM). The NP40-soluble protein abundance was found to be 0.898 ± 0.086 (concentration: 8mM) and 0.897 ± 0.061 (concentration: 10mM).
For UniProt Q14699 and related entries, the NP40-soluble protein abundance came to 0.992 ± 0.061 (concentration: 0.1mM); 0.928 ± 0.07 (concentration: 0.5mM); 0.97 ± 0.079 (concentration: 1mM); 0.946 ± 0.088 (concentration: 2mM); 0.948 ± 0.085 (concentration: 4mM); 0.914 ± 0.071 (concentration: 6mM). For the same target, the NP40-soluble protein abundance by setting is: (concentration: 8mM) 0.952 ± 0.019; (concentration: 10mM) 0.925 ± 0.048.
Turning to PPP1R7 (UniProt Q15435), the NP40-soluble protein abundance reads like this: (concentration: 0.1mM) 0.912 ± 0.061; (concentration: 0.5mM) 0.905 ± 0.061; (concentration: 1mM) 0.911 ± 0.084; (concentration: 2mM) 0.864 ± 0.063; (concentration: 4mM) 0.859 ± 0.082; (concentration: 6mM) 0.864 ± 0.061. Besides, the NP40-soluble protein abundance came out at 0.832 ± 0.1 (concentration: 8mM) and 0.82 ± 0.085 (concentration: 10mM).
“Q495G5 and related entries (UniProt Q8IVH4)”: the NP40-soluble protein abundance by setting is: (concentration: 0.1mM) 1.1 ± 0.031; (concentration: 0.5mM) 1.09 ± 0.026; (concentration: 1mM) 1 ± 0.11; (concentration: 2mM) 0.984 ± 0.067; (concentration: 4mM) 0.957 ± 0.063; (concentration: 6mM) 0.987 ± 0.055. For the same target, the NP40-soluble protein abundance (concentration: 8mM) is 0.909 ± 0.07 and the NP40-soluble protein abundance (concentration: 10mM) was determined as 0.927 ± 0.079.
On to UniProt Q16854 and related entries, for which the NP40-soluble protein abundance (concentration: 0.1mM) stood at 1.04 ± 0.031; the NP40-soluble protein abundance (concentration: 0.5mM) amounted to 1.01 ± 0.059; the NP40-soluble protein abundance (concentration: 1mM) was 0.907 ± 0.049; the NP40-soluble protein abundance (concentration: 2mM) came out at 0.857 ± 0.032; the NP40-soluble protein abundance (concentration: 4mM) is 0.892 ± 0.023; the NP40-soluble protein abundance (concentration: 6mM) is 0.846 ± 0.021. In addition, the NP40-soluble protein abundance by setting is: (concentration: 8mM) 0.876 ± 0.081; (concentration: 10mM) 0.817 ± 0.073.
For the target AARS2 (UniProt Q5JTZ9), the NP40-soluble protein abundance (concentration: 0.1mM) was determined as 1.13 ± 0.043; the NP40-soluble protein abundance (concentration: 0.5mM) was 1.02 ± 0.046; the NP40-soluble protein abundance (concentration: 1mM) is 0.989 ± 0.052; the NP40-soluble protein abundance (concentration: 2mM) is 0.998 ± 0.059; the NP40-soluble protein abundance (concentration: 4mM) came out at 0.98 ± 0.06; the NP40-soluble protein abundance (concentration: 6mM) turned out to be 0.948 ± 0.04. Besides, the NP40-soluble protein abundance reads like this: (concentration: 8mM) 0.925 ± 0.03; (concentration: 10mM) 0.925 ± 0.045.
As to UniProt Q15542 and related entries, the NP40-soluble protein abundance is 1.09 ± 0.092 (concentration: 0.1mM); 1.12 ± 0.12 (concentration: 0.5mM); 1.15 ± 0.091 (concentration: 1mM); 1.25 ± 0.18 (concentration: 2mM); 1.28 ± 0.18 (concentration: 4mM); 1.26 ± 0.16 (concentration: 6mM). In addition, the NP40-soluble protein abundance (concentration: 8mM) was 1.21 ± 0.15 and the NP40-soluble protein abundance (concentration: 10mM) was 1.31 ± 0.17.

Values taken from the supplement of paper PMC6411743.
